Test results reported in article PMC8347620, “Arabidopsis G-Protein β Subunit AGB1 Negatively Regulates DNA Binding of MYB62, a Suppressor in the Gibberellin Pathway”.
These are yes or no findings as the source states them, for the method shown. Some results given as binding are weak or reduced against the parent protein; the word gives no strength. Sequences can lack the tags named with a protein.

T1: G protein β subunit AGB1, yeast two-hybrid fusion (BD-AGB1) (Arabidopsis thaliana) (UniProt P49177)
T1 sequence: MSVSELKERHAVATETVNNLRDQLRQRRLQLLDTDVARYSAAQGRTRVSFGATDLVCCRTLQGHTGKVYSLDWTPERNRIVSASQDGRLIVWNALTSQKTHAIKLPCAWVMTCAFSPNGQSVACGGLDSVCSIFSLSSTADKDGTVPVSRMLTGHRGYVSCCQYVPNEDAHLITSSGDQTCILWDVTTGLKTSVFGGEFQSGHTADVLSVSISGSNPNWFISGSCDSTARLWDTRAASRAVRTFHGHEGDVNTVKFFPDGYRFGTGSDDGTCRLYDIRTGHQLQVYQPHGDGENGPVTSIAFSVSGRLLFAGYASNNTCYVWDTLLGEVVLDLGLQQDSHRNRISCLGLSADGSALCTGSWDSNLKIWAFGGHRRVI

T2: GST-AGB1 fusion protein (Arabidopsis thaliana) (UniProt P49177)
T2 sequence: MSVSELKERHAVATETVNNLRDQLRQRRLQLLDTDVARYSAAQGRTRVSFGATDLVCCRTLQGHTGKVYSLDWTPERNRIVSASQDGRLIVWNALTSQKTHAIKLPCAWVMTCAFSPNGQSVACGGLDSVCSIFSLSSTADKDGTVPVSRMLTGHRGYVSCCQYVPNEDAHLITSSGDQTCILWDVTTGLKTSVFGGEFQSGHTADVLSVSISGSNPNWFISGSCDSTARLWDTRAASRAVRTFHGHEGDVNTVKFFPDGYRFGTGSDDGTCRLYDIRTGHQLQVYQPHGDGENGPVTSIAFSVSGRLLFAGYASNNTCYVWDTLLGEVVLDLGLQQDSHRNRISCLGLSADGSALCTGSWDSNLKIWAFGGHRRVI


Tests used:
[1] = molecular target: T1, G protein β subunit AGB1, yeast two-hybrid fusion (BD-AGB1) (Arabidopsis thaliana); assay: two-hybrid; yeast two-hybrid; growth on SD/-Leu/-Trp/-His/-Ade with or without 40 μg/mL X-α-gal; empty AD and BD vectors as negative controls
[2] = molecular target: T2, GST-AGB1 fusion protein (Arabidopsis thaliana); assay: pull-down; GST pull-down: GST-AGB1 and maltose-eluted MBP-MYB62 incubated about 8 h at 4 °C in 40 mM HEPES, 10 mM KCl, 0.4 M sucrose, 3 mM MgCl2, 1 mM EDTA, 1 mM DTT; washed 5 times with 1× PBS pH 7.4; Western blot with MBP-tag and GST-tag antibodies; both purified

Row | binding [1] | binding [2] | Binder
1 | binds | – | Transcription factor MYB62, yeast two-hybrid fusion (AD-MYB62) (protein, UniProt Q9C9G7 1-286) MENSMKKKKSFKESEDEELRRGPWTLEEDTLLTNYILHNGEGRWNHVAKCAGLKRTGKSCRLRWLNYLKPDIRRGNLTPQEQLLILELHSKWGNRWSKIAQYLPGRTDNEIKNYWRTRVQKQARQLNIESNSDKFFDAVRSFWVPRLIEKMEQNSSTTTTYCCPQNNNNNSLLLPSQSHDSLSMQKDIDYSGFSNIDGSSSTSTCMSHLTTVPHFMDQSNTNIIDGSMCFHEGNVQEFGGYVPGMEDYMVNSDISMECHVADGYSAYEDVTQDPMWNVDDIWQFRE
2 | – | binds | MBP-MYB62 fusion protein (protein, UniProt Q9C9G7 1-286) MENSMKKKKSFKESEDEELRRGPWTLEEDTLLTNYILHNGEGRWNHVAKCAGLKRTGKSCRLRWLNYLKPDIRRGNLTPQEQLLILELHSKWGNRWSKIAQYLPGRTDNEIKNYWRTRVQKQARQLNIESNSDKFFDAVRSFWVPRLIEKMEQNSSTTTTYCCPQNNNNNSLLLPSQSHDSLSMQKDIDYSGFSNIDGSSSTSTCMSHLTTVPHFMDQSNTNIIDGSMCFHEGNVQEFGGYVPGMEDYMVNSDISMECHVADGYSAYEDVTQDPMWNVDDIWQFRE
